We go through two substances from article PMC6151050.

Sequences of proteins named here, by UniProt entry; tags and fusion partners are left off. A change or cut given only in a name is not applied to a line headed by its entry. Residues count along the entry.
UniProt Q9H6X2: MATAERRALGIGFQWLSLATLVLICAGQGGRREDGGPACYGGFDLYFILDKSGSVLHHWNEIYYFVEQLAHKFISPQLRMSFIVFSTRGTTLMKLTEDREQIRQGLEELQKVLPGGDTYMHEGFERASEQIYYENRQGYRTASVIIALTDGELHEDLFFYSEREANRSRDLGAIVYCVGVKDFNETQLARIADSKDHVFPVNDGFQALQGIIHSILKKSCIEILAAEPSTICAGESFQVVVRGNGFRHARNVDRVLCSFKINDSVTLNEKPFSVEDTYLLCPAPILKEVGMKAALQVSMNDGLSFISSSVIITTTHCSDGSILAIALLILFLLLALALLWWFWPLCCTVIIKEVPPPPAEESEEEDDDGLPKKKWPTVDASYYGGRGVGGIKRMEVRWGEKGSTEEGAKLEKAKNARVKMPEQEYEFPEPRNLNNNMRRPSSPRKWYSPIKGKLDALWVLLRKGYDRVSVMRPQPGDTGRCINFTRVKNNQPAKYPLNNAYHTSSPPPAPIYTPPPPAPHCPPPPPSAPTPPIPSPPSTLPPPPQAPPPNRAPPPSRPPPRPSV
TEM8, endogenous in HepG2 hepatoma cells (human (endogenous in HepG2)): residues 33-564 of Q9H6X2
UniProt P02769, residues 25-607: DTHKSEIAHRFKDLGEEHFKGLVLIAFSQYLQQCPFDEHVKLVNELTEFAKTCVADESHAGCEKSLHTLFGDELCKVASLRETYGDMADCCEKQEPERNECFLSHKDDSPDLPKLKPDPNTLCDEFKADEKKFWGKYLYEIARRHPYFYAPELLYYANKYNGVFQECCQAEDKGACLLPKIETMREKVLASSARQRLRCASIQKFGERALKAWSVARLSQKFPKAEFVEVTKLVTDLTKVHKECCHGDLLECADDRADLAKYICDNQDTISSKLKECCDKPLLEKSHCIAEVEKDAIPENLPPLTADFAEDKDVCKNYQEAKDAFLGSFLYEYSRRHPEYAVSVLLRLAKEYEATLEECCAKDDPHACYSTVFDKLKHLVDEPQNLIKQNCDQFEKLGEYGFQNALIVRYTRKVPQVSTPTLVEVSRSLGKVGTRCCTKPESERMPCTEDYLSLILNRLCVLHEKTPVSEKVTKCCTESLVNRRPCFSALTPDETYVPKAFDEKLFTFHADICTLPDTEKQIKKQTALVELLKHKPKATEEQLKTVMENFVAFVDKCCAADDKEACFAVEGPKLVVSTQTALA

No constants are given. Whether binding was seen depends on the method and setting. For some assays here: Binding seen in cells or lysates may run through a third protein. Some binding calls cover weakened binding; strength is not graded here.

Test [1] concerns the target TEM8, endogenous in HepG2 hepatoma cells (human (endogenous in HepG2)) (UniProt Q9H6X2). Briefly: co-IP; HepG2 cells treated with LMW-uPA (doses); lysates immunoprecipitated by TEM8 antibody, immunoblot with EGFR antibody. In general terms: A western blot detects proteins with antibodies after separation by electrophoresis.
In test [2] the target is TEM8-Fc, a recombinant fusion protein comprising the extracellular domain of human TEM8 linked to the Fc portion of human IgG1 (human) (UniProt Q9H6X2). Nature of the test: SPR; BIAcore 2000; TEM8-Fc amine-coupled on a CM5 chip (about 5,000 RU); analytes in PBS with or without 2 mM MnCl2, 30 ul/min; Herceptin surface as background control; both purified. Background: SPR reads the build-up and loss of mass on a sensor chip optically.

For the substance “EGFR, endogenous in HepG2 cells (from UniProt P00533 25-1210) (receptor)”, in test [1], the binding result was “binds”.

With BSA (from UniProt P02769 25-607), in test [2], the binding result is given as “no binding”.
